# According to paper PMC11252262:
# The chains behind the UniProt entries cited, without tags or fusion partners.
# UniProt E9Q555: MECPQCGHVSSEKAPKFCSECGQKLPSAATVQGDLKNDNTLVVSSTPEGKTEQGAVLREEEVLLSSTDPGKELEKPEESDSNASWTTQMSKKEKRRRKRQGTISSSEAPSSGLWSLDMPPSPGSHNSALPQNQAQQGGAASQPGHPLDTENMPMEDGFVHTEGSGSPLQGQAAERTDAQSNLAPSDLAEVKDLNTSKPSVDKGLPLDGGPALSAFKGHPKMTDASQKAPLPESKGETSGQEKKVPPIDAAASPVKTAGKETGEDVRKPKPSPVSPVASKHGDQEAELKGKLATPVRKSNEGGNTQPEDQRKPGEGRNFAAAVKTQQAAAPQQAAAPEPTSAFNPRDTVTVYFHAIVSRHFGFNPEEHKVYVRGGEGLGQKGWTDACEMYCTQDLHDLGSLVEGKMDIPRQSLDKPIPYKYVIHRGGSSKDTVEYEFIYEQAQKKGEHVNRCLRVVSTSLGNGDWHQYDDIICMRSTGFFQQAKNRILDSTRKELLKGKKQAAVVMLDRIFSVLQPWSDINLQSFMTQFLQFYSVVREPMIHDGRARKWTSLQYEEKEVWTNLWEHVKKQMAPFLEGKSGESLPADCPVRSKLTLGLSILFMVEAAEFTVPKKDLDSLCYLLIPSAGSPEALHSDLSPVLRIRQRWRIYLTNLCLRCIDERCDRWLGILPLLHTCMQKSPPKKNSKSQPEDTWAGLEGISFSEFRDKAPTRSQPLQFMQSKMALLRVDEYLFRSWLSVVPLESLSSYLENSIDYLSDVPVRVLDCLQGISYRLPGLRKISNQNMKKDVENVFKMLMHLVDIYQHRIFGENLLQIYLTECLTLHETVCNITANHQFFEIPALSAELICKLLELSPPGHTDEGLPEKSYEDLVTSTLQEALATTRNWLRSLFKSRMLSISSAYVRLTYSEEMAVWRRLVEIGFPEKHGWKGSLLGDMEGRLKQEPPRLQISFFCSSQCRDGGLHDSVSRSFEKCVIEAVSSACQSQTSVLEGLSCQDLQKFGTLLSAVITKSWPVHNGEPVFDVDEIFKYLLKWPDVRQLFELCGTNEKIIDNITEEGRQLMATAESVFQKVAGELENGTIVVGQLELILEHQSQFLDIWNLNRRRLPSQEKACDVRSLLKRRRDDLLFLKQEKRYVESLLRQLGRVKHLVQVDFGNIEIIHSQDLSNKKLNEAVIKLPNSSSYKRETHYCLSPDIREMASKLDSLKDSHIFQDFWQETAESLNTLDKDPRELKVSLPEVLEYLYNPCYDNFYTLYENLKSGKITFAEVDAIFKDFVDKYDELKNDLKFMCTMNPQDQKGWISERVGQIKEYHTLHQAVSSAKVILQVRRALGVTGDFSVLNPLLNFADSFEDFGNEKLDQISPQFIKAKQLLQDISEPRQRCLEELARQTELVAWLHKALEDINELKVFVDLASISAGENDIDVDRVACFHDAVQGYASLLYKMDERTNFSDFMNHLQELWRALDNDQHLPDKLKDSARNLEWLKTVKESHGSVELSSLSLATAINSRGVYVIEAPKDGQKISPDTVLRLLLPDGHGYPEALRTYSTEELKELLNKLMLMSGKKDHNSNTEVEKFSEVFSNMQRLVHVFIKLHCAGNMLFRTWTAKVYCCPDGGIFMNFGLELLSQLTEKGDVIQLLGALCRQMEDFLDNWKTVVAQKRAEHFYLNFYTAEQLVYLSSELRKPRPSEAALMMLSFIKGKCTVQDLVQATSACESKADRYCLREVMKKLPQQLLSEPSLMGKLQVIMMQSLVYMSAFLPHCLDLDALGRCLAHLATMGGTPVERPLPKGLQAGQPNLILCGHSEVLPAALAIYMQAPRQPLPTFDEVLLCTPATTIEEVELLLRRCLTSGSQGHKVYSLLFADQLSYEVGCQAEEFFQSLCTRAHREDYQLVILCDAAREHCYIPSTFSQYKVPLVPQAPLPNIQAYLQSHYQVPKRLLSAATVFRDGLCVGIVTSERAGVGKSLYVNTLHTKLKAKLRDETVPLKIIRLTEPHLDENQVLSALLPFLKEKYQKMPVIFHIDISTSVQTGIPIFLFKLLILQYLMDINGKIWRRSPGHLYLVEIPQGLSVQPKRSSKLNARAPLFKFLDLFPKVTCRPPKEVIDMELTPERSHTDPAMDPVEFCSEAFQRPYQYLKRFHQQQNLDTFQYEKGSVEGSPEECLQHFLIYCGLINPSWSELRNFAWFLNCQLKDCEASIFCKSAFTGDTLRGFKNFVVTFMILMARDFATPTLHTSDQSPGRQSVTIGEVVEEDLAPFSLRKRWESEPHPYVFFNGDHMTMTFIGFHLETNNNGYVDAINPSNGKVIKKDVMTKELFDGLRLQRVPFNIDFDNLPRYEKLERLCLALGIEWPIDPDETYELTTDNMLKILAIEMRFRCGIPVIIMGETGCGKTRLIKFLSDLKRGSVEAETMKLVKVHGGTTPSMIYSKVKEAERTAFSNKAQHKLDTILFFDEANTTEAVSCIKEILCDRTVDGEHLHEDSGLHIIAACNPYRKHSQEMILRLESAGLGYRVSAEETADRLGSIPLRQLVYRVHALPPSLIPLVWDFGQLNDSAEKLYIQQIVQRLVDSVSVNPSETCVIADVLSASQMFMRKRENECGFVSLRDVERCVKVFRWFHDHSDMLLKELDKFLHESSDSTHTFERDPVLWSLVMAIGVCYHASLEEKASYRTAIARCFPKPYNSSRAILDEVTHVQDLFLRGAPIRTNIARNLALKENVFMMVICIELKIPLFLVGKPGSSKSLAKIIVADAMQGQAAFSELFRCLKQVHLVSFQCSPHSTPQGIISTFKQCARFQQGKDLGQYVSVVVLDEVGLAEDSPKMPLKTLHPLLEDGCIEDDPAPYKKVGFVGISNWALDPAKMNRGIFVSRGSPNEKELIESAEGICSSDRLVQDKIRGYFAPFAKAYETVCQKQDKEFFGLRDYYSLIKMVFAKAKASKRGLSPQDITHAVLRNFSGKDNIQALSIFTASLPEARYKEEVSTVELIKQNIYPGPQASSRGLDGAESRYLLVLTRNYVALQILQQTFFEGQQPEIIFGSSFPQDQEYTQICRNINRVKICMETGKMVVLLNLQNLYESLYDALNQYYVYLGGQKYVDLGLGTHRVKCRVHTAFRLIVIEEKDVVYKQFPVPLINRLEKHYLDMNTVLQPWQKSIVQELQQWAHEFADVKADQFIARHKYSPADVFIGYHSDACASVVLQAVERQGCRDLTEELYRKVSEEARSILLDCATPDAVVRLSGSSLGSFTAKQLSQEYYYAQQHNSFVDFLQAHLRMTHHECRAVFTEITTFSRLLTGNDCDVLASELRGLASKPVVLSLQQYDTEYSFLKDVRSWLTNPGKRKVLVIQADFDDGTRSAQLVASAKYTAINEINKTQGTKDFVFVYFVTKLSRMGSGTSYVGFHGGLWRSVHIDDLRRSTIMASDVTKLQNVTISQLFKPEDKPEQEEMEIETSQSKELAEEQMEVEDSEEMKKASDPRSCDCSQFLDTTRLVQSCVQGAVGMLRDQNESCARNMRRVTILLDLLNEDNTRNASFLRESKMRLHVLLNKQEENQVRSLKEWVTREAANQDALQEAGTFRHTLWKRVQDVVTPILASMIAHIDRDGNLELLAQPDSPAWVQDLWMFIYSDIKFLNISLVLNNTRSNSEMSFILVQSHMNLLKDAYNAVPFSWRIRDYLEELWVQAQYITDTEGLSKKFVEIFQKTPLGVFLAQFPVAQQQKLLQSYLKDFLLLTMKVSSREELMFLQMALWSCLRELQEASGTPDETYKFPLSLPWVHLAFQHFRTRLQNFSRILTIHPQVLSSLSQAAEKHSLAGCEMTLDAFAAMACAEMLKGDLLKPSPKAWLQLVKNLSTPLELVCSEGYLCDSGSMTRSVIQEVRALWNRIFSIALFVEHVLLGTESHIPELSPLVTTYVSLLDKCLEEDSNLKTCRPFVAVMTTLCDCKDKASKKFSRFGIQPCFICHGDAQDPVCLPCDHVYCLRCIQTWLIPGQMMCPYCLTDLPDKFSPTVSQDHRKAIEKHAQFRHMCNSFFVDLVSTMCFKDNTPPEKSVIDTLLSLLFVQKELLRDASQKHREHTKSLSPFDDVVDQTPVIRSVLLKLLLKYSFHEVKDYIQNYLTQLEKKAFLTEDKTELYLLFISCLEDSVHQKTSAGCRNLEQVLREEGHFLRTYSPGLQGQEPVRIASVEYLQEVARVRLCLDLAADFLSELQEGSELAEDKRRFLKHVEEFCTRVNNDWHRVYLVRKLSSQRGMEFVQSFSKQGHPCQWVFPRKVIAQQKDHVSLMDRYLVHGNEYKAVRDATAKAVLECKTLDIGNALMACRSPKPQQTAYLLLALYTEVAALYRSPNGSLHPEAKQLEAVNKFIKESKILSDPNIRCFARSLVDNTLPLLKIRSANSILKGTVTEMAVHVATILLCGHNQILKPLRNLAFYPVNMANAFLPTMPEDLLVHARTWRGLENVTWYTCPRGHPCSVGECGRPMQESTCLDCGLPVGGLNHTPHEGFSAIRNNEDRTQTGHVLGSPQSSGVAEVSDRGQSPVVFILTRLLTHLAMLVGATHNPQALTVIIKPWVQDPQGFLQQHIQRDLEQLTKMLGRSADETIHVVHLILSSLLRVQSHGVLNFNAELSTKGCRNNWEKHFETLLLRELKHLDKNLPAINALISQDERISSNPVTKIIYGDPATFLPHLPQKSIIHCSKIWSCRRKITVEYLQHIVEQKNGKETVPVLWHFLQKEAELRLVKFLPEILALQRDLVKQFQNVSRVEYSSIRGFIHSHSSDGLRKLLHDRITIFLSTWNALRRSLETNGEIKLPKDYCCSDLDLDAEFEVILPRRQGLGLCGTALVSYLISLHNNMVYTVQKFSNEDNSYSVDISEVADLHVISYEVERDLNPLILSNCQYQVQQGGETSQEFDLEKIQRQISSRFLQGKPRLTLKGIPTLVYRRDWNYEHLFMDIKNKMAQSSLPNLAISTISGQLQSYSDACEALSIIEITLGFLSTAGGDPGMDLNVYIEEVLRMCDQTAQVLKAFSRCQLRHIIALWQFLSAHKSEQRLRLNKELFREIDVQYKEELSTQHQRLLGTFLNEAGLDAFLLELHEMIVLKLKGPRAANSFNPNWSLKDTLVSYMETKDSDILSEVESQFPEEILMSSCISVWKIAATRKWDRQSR
# UniProt O35718: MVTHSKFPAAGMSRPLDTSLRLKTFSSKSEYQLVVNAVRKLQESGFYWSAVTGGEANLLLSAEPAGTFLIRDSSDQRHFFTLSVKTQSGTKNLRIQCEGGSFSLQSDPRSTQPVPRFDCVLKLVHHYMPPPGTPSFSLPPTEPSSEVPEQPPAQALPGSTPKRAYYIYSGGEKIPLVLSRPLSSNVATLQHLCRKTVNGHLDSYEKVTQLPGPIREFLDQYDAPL
# Biological target: Flag-tagged RNF213 (RING finger protein 213), transgene overexpressed in Treg cells of Rnf213^Tg Foxp3^Cre mice (UniProt E9Q555)
# Assay: affinity purification with mass spectrometry; proteins from Treg cells of WT or Rnf213^Tg Foxp3^Cre mice immunoprecipitated with anti-Flag antibodies, eluted with 8 M urea, LC-MS
row,binding,Molecule
1,binds,SOCS3 (from UniProt O35718 1-225)
2,binds,"TRAF1 (protein, UniProt P39428 1-409) MASSSAPDENEFQFGCPPAPCQDPSEPRVLCCTACLSENLRDDEDRICPKCRADNLHPVSPGSPLTQEKVHSDVAEAEIMCPFAGVGCSFKGSPQSMQEHEATSQSSHLYLLLAVLKEWKSSPGSNLGSAPMALERNLSELQLQAAVEATGDLEVDCYRAPCCESQEELALQHLVKEKLLAQLEEKLRVFANIVAVLNKEVEASHLALAASIHQSQLDREHILSLEQRVVELQQTLAQKDQVLGKLEHSLRLMEEASFDGTFLWKITNVTKRCHESVCGRTVSLFSPAFYTAKYGYKLCLRLYLNGDGSGKKTHLSLFIVIMRGEYDALLPWPFRNKVTFMLLDQNNREHAIDAFRPDLSSASFQRPQSETNVASGCPLFFPLSKLQSPKHAYVKDDTMFLKCIVDTSA"
3,binds,"UBA7 (enzyme, UniProt Q9DBK7 1-977) MDEELYSRQLYVLGLPAMQRIQEAKVLLCGLQGLGAEVAKNLVLTGVGSLTLHDPHPTCWADLAAQCFLSEESLGRNRAEASQAQLAQLNEAVQISVHSGDITEDLLQGFQVVVLTDSKLEDQLKVGPLCHKHGVRFLMAETRGLVGRLFCDFGEDFTVLDPTEVEPMTAAIQDISQGFPGIVTLRGDTKRHSFHDGDLVIFSDIEGMVELNSCSPQSVRVQKDGSLEIGDTTTFSRYLRGGVVTEVKRPKTVRHKPLDIALLQPHVVAQNTQEVQRAHCLHQAFHVLHKFQQLHGRLPKPWDPDDAETVVELAQDLEPLKGTEEESLDEALLRTIALSSAGTLSPMAAIMGGVAAQEVLKAISRKFMPLDQWLYFDALECLPEDETLLPSPEDCQPRNCRYDGQIAVFGTDLQEKLSDQHYLLVGAGAIGCEMLKVFALVGLGVRANGGVTVADMDYIERSNLSRQFLFRPKDVRRPKAEVAAAAAHRLNPDLRATPYTCPLDPTTEDIYDDSFFSRVNGVVAALDSFQARHYVAARCTHYLKPLLEAGTQGTWGSASVFVPYVTEAYRGPASDAASEDAPYPVCTLRHIPSSMEHSVQWAQDQFEGLFRLSTETINCYQQTCTSLSATDRTETLALLQQVMGVLRTRPQTWQDCVVWALGHWQLCFHDKVLEGGTQFSSGSNKCPHPLQFDPNHDMHFLYVLAAANLYARMHGLPGSQSQPALRELLTRLLESDSRPQNLFSAEHGQEQLKELQETLDDWRKGPPLKPVLFVKDDDSNFHVDFVVAATDLRCQNYGILPVNHARIKQIVGRIIPAIATSTAVVAGLLGLELYKVVSGLRSHGTFRHSYLHLAENHFIRSAPSAPAVQSFRDLKWTCWDRLKVPAVQPERTLKSLLAHLQEEHGLKVEMLLHHQALLYSSGWSSEKQAQHLCLRVTELVQHVTGWKPKPGLKVLVFELSCEGEEEEMAFPPLHYEL"
4,binds,"MEX3A (protein, UniProt G3UYU0 1-520) MPSLVVSGIMERNGGFGELGCFGGSAKDRGLLEDERALQLALDQLCLLGLGEPPAPTAGEDGGGGGGGAPAQPAAPPQPAPPPPPAAAPAAPSAAPAAQTPQPPTAPKGANDAKLCALYKEAELRLKGSSNTTECVPVPTSEHVAEIVGRQGCKIKALRAKTNTYIKTPVRGEEPVFMVTGRREDVATARREIISAAEHFSMIRASRNKSGAAFGVAPALPGQVTIRVRVPYRVVGLVVGPKGATIKRIQQQTNTYIITPSRDRDPVFEITGAPGNVERAREEIETHIAVRTGKILEYNSDGDFLAGSPDAALDSRYSDAWRVHAPGCKPLSTFRQNSLGCIGECGVDSAFEAPRLSEQGGDFGYSGYLFPGYGVGKQDVYYGVAETSPPLWAGQENATPTSVLFSSASSSSSSAKARAGPPGAHRSPATSAGPEQLTGLPRRPPGEPLQGFSKLGTGGLRSPGSGRDCMVCFESEVTAALVPCGHNLFCMECAVRICERTDPECPVCHITATQAIRIFS"

# No constants are given. Whether binding was seen depends on the method and setting. Binding seen in cells or lysates may run through a third protein. A yes stands for co-enrichment or nearness to the bait. Other partners may have been found.
